Publication PMC8997538
Positions count from the first letter of the chain named. Where two headings read alike, the source gives them in different places. Results are given in words; binding and its absence hold for the method and conditions named. In cells and extracts the contact can be indirect. These calls come from enrichment with a bait or labelling near it, and not all partners need be listed. For part of these data: A no says only that the protein was not detected with the bait. For part of these data: Where a sequence is shown, tags or fusion partners need not be part of it.

Amino acid sequences for entries named in this document (tags omitted).
UniProt Q8VCF0: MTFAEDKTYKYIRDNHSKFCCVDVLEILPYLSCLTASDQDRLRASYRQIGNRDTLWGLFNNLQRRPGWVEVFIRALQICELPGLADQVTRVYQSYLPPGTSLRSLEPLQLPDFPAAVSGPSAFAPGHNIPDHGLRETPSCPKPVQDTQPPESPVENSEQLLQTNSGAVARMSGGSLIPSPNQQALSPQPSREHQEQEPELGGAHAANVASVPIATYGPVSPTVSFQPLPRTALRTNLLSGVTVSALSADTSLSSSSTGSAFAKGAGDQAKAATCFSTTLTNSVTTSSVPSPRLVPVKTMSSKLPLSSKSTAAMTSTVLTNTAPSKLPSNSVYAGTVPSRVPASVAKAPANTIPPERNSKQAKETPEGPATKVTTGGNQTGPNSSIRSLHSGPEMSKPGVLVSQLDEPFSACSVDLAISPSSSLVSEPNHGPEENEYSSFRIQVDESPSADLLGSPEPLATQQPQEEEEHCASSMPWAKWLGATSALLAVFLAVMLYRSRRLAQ

T1: 3×Myc-CARD19-WT (mouse) (UniProt Q9D1I2)
T1 sequence: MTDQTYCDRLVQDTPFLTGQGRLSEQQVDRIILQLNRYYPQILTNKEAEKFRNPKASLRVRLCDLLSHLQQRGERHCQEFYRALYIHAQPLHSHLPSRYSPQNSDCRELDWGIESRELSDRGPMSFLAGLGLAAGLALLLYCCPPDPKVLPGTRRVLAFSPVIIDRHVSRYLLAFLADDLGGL

T2: 3×Myc-CARD19-G73R (mouse) (UniProt Q9D1I2)
T2 sequence: T1 sequence with G73R

T3: 3×Myc-CARD19-Δ146 (mouse) (UniProt Q9D1I2)
T3 sequence: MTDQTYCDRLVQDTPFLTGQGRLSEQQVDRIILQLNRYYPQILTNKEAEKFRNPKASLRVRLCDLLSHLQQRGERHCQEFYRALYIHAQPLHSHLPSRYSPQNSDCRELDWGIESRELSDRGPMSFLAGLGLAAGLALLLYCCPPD

B1: MIC19 (protein, UniProt Q9CRB9 1-227)
chain: MGGTASTRRVTFEADENENITVVKGIRLSENVIDRMKESSPSGSKSQRYSSVYGASVSDEDLKRRVAEELALEQAKKESEHQRRLKQARDLERERAAANEQLTRAVLRERISSEEERMKAKHLARQLEEKDRVMRKQDAFYKEQLARLEERSSEFYKVTTEEYQKAAEEVEAKFKRYEYHPVCADLQTKILQCYRQNTQQTLSCSALASQYMHCVNHAKQSMLEKGG
B2: SAMM50 (protein, UniProt Q8BGH2 1-469)
chain: MGTVHARSLEPLPSSGTDFGALGEEAEFVEVEPEAKQEILENKDVVVQHVHFDGLGRTKDDIIICEIGEVFKAKNLIEVMRRSHEAREKLLRLGIFRQVDVLIDTCHGEDALPNGLDVTFEVTELRRLTGSYNTMVGNNEGSMVLGLKLPNLLGRAEKVTFQFSYGTKETSYGLSFFKPQPGNFERNFSVNLYKVTGQFPWSSLRETDRGVSAEYSFPLWKTSHTVKWEGVWRELGCLSRTASFAVRKESGHSLKSSLSHAMVIDSRNSSILPRRGALFKVNQELAGYTGGDVSFIKEDFELQLNKPLALDSVFSTSLWGGMLVPIGDKPSSIADRFYLGGPTSVRGFSMHSIGPQSEGDYLGGEAYWAGGLHLYTPLPFRPGQGGFGELFRTHFFLNAGNLCNLNYGEGPKAHIRKLAECIRWSYGAGVVLRLGNIARLELNYCIPMGVQGGDRICDGVQFGAGIRFL
B3: MIC25 (protein, UniProt Q91VN4 1-273)
chain: MGSAESAEARRVSFEMDEEERVRVLQGIRLSESVVNRMKDCSQPSAGEQLVPGFGPSSSAPVPTVPLPAISVPTVPAPTTPVPTAPSSSVRGLPGGTCKGPLTDVKVPSAESGGGLQSSAVKEDLKKFQQEQLAVQDEMVRVAKKEKEAAEKHLKASLPKKKASLTHEQQQSARLARELEDREAELSRRDTFYKEQQGRIQEKNAELYKLSSQQFHEAASKAESTIKPRRVEPVCSGLQAQILRCYRDHLHEVLLCSDLVKAYQHCVSTARKG
B4: DNAJC11 (protein, UniProt Q5U458 1-559)
chain: MATALSEEELDNEDYYSLLNVRREASSEELKAAYRRLCMLYHPDKHRDPELKSQAERLFNLVHQAYEVLSDPQTRAIYDIYGKRGLEMEGWEVVERKRTPAEIREEFERLQREREERRLQQRTNPKGTISVGVDATDLFDRYDEEYEDVSGSGFPQIEINKMHISQSIEAPLTATDTAILSGSLSTQNGNGGGSVNFALRRVTSAKGWGELEFGAGDLQGPLFGLKLFRNLTPRCFVTTNCALQFSSRGIRPGLTTVLARNLDKNTVGYLQWRWGIQSAMNTSIVRDTKTCHFTVALQLGIPHSFALISYQHKFQDDDQTRVKGSLKAGFFGTIVEYGAERKISRHSVLGAAVSIGVPQGVSLKVKLNRASQTYFFPIHLTDQLLPSAVFYATVGPLVVYLAVHRLIIRPYLRAQKEKELEKQRENTASDILQKKQEAEAAVRLMQESVRRIIEAEESRMGLIIVNAWYGKFVNDKSRKNEKVKVIDVTVPLQCLVKDSKLILTEASKAGLPGFYDPCVGEEKSLRVLYQFRGVLHQVMVPDSEALRIPKQSHRIDTDG

Tests used:
Test in all cases: affinity purification with mass spectrometry; lysates of Card19−/− immortalized macrophages expressing 3×Myc-CARD19 (WT; repeated with WT, G73R, Δ146, ΔTM), Myc-Trap agarose beads or negative control agarose beads; 50 mM Tris-HCl pH 7.5, 150 mM NaCl, 1% Triton X-100; gel slices analysed by mass spectrometry
[1] = target: T1, 3×Myc-CARD19-WT (mouse)
[2] = target: T2, 3×Myc-CARD19-G73R (mouse)
[3] = target: T1, 3×Myc-CARD19-WT (mouse); remark: listed apart in the source
[4] = target: 3×Myc-CARD19-ΔTM (mouse) (UniProt Q9D1I2)
[5] = target: T3, 3×Myc-CARD19-Δ146 (mouse)

| Molecule | binding [1] | binding [2] | binding [3] | binding [4] | binding [5] |
| --- | --- | --- | --- | --- | --- |
| mitochondrial antiviral signaling protein (MAVS) (from UniProt Q8VCF0 1-503) | no binding | – | – | – | – |
| B1 | – | binds | binds | binds weakly | – |
| B2 | – | binds | binds | binds weakly | – |
| B3 | – | binds | binds | binds weakly | binds weakly |
| B4 | – | – | no binding | – | – |
